In patent US20150166679A1 one finds binding data, which are given here for two substances.

The chains behind the UniProt entries cited, without tags or fusion partners. Where a name states a change or a piece, a line headed by the entry shows the natural chain unless it says otherwise. Residues count along the entry.
UniProt Q9NNX6, residues 62-404: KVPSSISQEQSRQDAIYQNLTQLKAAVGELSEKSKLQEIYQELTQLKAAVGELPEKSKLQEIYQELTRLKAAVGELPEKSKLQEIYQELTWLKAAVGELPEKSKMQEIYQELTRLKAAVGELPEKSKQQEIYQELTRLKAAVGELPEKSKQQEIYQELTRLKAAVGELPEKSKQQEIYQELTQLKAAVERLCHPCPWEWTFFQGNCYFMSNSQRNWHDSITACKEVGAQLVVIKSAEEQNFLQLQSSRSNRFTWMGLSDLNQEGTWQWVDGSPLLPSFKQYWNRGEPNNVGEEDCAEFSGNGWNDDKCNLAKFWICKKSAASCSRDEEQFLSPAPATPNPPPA
UniProt P01833: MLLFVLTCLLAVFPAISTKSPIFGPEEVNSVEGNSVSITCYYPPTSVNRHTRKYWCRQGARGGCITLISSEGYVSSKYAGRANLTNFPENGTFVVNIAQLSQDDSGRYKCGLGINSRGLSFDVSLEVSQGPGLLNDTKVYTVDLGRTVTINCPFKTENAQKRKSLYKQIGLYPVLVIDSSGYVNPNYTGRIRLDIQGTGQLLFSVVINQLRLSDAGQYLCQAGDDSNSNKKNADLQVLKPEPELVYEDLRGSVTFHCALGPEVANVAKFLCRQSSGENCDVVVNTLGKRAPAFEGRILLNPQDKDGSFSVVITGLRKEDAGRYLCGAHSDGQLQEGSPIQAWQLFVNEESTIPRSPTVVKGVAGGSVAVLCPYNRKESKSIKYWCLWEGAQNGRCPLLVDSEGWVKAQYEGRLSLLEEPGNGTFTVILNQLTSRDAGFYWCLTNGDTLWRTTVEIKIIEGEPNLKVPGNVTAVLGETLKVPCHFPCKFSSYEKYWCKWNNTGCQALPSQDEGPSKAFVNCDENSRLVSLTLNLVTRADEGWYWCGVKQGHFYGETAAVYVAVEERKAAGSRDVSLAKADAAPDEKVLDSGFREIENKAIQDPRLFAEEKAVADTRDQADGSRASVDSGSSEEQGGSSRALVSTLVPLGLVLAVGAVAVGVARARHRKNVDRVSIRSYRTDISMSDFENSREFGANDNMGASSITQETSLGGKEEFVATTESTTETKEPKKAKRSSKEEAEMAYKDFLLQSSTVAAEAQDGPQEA

These are yes or no findings as the source states them, for the method shown. Some entries that bind do so weakly or less than the wild type.

For experiment [1], the target named is DC-SIGN-Fc fusion protein (R&D Systems, no. 161-DC-050) (human) (UniProt Q9NNX6). Description: ELISA, DC-SIGN-Fc coated, SC serially diluted from 1 microgram per ml, anti-human SC-HRP detection; weaker than SC from CHO LEC11 after desialylation. In general terms: An ELISA detects its analyte on a solid surface through an enzyme-linked reagent.
Experiment [2] has the same target. Description: ELISA, DC-SIGN-Fc coated, SC serially diluted from 1 microgram per ml, anti-human SC-HRP detection; weaker than the same SC after desialylation.

For “desialylated recombinant human secretory component produced in CHO DUK- (from UniProt P01833 19-607) (receptor)”, the binding result in experiment [1] is given as “binds”.
“sialylated recombinant human Secretory Component expressed in CHO LEC11 (from UniProt P01833 19-607) (receptor)”: in experiment [2], the binding result was “binds”.
